# Test results reported in publication doi:10.1101/183848.
# No constants are given. Whether binding was seen depends on the method and setting. Binding seen in cells or lysates may run through a third protein.
# B1: FIV CO-Gag MACA (domain or fragment, UniProt P16087 1-357)
# chain: MGNGQGRDWKMAIKRCSNVAVGVGGKSKKFGEGNFRWAIRMANVSTGREPGDIPETLDQLRLVICDLQERREKFGSSKEIDMAIVTLKVFAVAGLLNMTVSTAAAAENMYSQMGLDTRPSMKEAGGKEEGPPQAYPIQTVNGVPQYVALDPKMVSIFMEKAREGLGGEEVQLWFTAFSANLTPTDMATLIMAAPGCAADKEILDESLKQLTAEYDRTHPPDAPRPLPYFTAAEIMGIGLTQEQQAEARFAPARMQCRAWYLEALGKLAAIKAKSPRAVQLRQGAKEDYSSFIDRLFAQIDQEQNTAEVKLYLKQSLSIANANADCKKAMSHLKPESTLEEKLRACQEIGSPGYKMQL
# Target: DEAD box helicase 6 (DDX6), endogenous feline (domestic cat (endogenous in G355-5))
# Experiment: co-IP
binder,measurement,value
B1,binding,no binding
